Data from patent US9493524B2, “Methods for treatment of stroke or cerebrovascular accidents using an ETB receptor agonist” (MIDWESTERN UNIVERSITY, priority 2007, dated 2016).
At least one peptide structure holds a part that was inferred or is arguable (an end, a ring closure or a residue). Numbered stars: 1 amine (or outer) side, 2 acyl side, 3 side chain; on linkers, the order of the positions; unused ones are H or OH. Peptide text beside a SMILES is read from it. Suc = O=C(CCC(=O)[*:2])[*:1]

What was measured:
[1] = test system: urethane anesthetized rat; assay: Renal blood perfusion by Laser Doppler Flowmetry; assay type: in vivo, Sprague-Dawley rats
Protocol: (§1) Male Sprague-Dawley rats weighing 323±4 grams (g) were anesthetized with urethane (ethyl carbamate, Sigma Aldrich, St. Louis, Mo.) dissolved in isotonic saline (0.9% NaCl, Hospira, Inc., Lake Forest, Ill.). The rats were administered a dose of 0.15 g per 100 g body weight via intraperitoneal (i.p.) injection.
Renal Perfusion: The right kidney was dissected retroperitoneally. Renal perfusion was measured via a fiber optic probe (PF408) applied to the surface of the rat kidney. The probe was connected to a Periflux PF2b 4000 Laser Doppler Flowmetry unit (Perimed, Stockholm, Sweden).
(§2) The rats were randomly selected for various studies. Following surgery the rats were allowed to stabilize for 30 minutes and a 15 minutes baseline recording of all parameters (blood pressure, heart rate, cerebral blood flow, and renal blood flow) was obtained prior to the administration of the pretreatment followed by IRL-1620 (Suc-[Glu 9, Ala 11,15], American Peptide Co, Inc., Sunnyville, Calif.) or ET-1 (Ala 1,3,11,15, RBI Sigma, Natick, Mass.). BQ-788, a selective endothelin B antagonist, is the sodium salt of N-cis-2,6-dimethylpiperidinocarbonyl-L-gamma-methylleucyl-D-1-methoxycarbonyl triptophanyl-DNIe (see Proc. Natl. Acad. Sci. USA, 91, pp. 4892-4896 (1994)) BMS is BMS 182, 874, which is a selective endothelin A antagonist having a structure
(§3) Group 1: Animals (n=4) were pretreated with saline 15 minutes (min) prior to administration of IRL-1620 (5 μg/kg, i.v.).
(§4) Group 2: Animals (n=4) were pretreated with BMS (5 mg/kg, i.v.) 15 min prior to administration of IRL-1620 (5 μg/kg, i.v.).
(§5) Group 3: Animals (n=4) were pretreated with BMS (15 mg/kg, i.v.) 15 min prior to administration of IRL-1620 (5 μg/kg, i.v.).
(§6) Group 4: Animals (n=4) were pretreated with BQ788 (1 μg/kg, i.v.) 15 min prior to administration of IRL-1620 (5 μg/kg, i.v.).
(§7) Group 1: Animals (n=4) were pretreated with saline 15 min prior to administration of ET-1 (0.75 μg/kg, i.v.).
(§8) Group 2: Animals (n=4) were pretreated with BMS (5 mg/kg, i.v.) 15 min prior to administration of ET-1 (0.75 μg/kg, i.v.).
(§9) Group 3: Animals (n=4) were pretreated with BMS (15 mg/kg, i.v.) 15 min prior to administration of ET-1 (0.75 μg/kg, i.v.).
(§10) Group 4: Animals (n=4) were pretreated with BQ788 (1 μg/kg, i.v.) 15 min prior to administration of ET-1 (0.75 μg/kg, i.v.).
(§11) Blood pressure, heart rate, cerebral blood perfusion, and renal blood perfusion all were recorded for 2 hours following the final injection. Blood gases were analyzed prior to administration of any drugs, and at 60 and 120 min following administration of IRL-1620 or ET-1. At the end of each experiment, the animals were euthanized with an overdose of urethane i.v. In the figures, all data values are presented as mean±SEM. One-sample t-tests and one-way ANOVAs were used to test the differences within and between the groups. A P value of P<0.05 was considered significant.

[2] = test system: urethane anesthetized rat; assay: Blood pressure / mean arterial pressure recording; assay type: in vivo, Sprague-Dawley rats; settings: for decrease in mean arterial pressure: IRL-1620 5.0 μg/kg, i.v., ET-1 0.75 μg/kg, FIG. 11
Protocol: as §1
(§12) Blood Pressure and Heart Rate: The femoral vein and artery were cannulated. The arterial cannula was connected to a Gould P23 ID pressure transducer for recording the blood pressure on a Grass P7D polygraph through a 7PI preamplifier. The heart rate was recorded through a 7P4B Grass tachograph, triggered from blood pressure signals. Drugs were administered via the venous cannula.
as §2, §3, §4, §5, §6, §7, §8, §9, §10
Blood pressure, heart rate, cerebral blood perfusion, and renal blood perfusion all were recorded for 2 hours following the final injection. Blood gases were analyzed prior to administration of any drugs, and at 60 and 120 min following administration of IRL-1620 or ET-1. […]

[3] = test system: human internal mammary arterial segments; settings: in vitro; J. J. Liu et al. (1996); cited from earlier work
[4] = test system: urethane anesthetized rat; assay: Heart rate recording; assay type: in vivo, Sprague-Dawley rats; settings: for heart rate: Saline pretreatment, i.v., mean±SEM, in bpm (unit assumed)
Protocol: as §1, §12, §2, §3, §4, §5
Group 4: Animals (n=4) were pretreated with BQ788 (1 μg/kg, i.v.) 15 min prior to administration of IRL-1620 (5 μg/kg, i.v.). […]
as §11

[5] = test system: urethane anesthetized rat; assay: Cerebral blood perfusion by Laser Doppler Flowmetry; assay type: in vivo, Sprague-Dawley rats
Protocol: as §1
Cerebral Perfusion: A burr hole was drilled into the rat skull about 2 millimeters (mm) to the left of midline. Cerebrovascular perfusion was measured via a fiber optic probe (PF407) applied to the surface of the rat brain. The probe was connected to a Periflux PF2b 4000 Laser Doppler Flowmetry unit (Perimed, Stockholm, Sweden).
as §2, §3, §4, §5, §6, §7, §8, §9, §10, §11

ETB receptors = settings: M. Takai et al. (1992); cited from earlier work
breast tumor = settings: IRL-1620 administration prior to paclitaxel, compared to paclitaxel treated rats; cited from earlier work
[6] = 3 nmol/kg, iv or 5 μg/kg, iv, returned to normal quickly, FIG. 4

CC[C@H](C)[C@H](NC(=O)[C@H](CC(=O)O)NC(=O)[C@H](CC(C)C)NC(=O)[C@H](Cc1c[nH]cn1)NC(=O)[C@H](C)NC(=O)[C@H](Cc1ccccc1)NC(=O)[C@H](Cc1ccc(O)cc1)NC(=O)[C@@H](NC(=O)[C@H](C)NC(=O)[C@H](CCC(=O)O)NC(=O)[C@H](CCC(=O)O)NC(=O)[C@H](CC(=O)O)NC(=O)CCC(=O)O)C(C)C)C(=O)N[C@H](C(=O)N[C@@H](Cc1c[nH]c2ccccc12)C(=O)O)[C@@H](C)CC [IRL-1620, N-Succinyl-[Glu^9, Ala^11,15]-Endothelin 1 fragment 8-21] (Suc-DEEAVYFAHLDIIW-OH)
renal blood perfusion compared to baseline ([1]; IRL-1620 3 nmol/kg, iv, FIG. 3): decreased | persistence of the decrease in renal blood flow ([1]; IRL-1620 5 μg/kg, i.v., ET-1 0.75 μg/kg, FIG. 8): approximately 15 minutes | decrease in renal blood flow ([1]; at 1 minute, IRL-1620 5 μg/kg, i.v., ET-1 0.75 μg/kg, FIG. 8): 16.94% | decrease in renal blood flow ([1]; at 5 minutes, IRL-1620 5 μg/kg, i.v., ET-1 0.75 μg/kg, FIG. 8): 15.05% | decrease in renal blood flow ([1]; at 10 minutes, IRL-1620 5 μg/kg, i.v., ET-1 0.75 μg/kg, FIG. 8): 3.85% | effect on blood pressure [2, 6]: transient decrease | decrease in mean arterial pressure ([2]; at 0.2 minute): 33.32% | decrease in mean arterial pressure ([2]; at 0.5 minute): 23.88% | decrease in mean arterial pressure ([2]; at 1 minute): 13.66% | maximum contractile effect relative to that obtained with ET-1 or noradrenaline [3]: 20% | effect on heart rate [4, 6]: increase | effect on heart rate (Table 1) ([4]; IRL-1620 5 μg/kg, i.v. after saline, ET-1 with or without pretreatment): increase | heart rate ([4]; IRL-1620 5 μg/kg, time 0 min): 352 ± 3 | heart rate ([4]; IRL-1620 5 μg/kg, time 1 min): 368 ± 6 | heart rate ([4]; IRL-1620 5 μg/kg, time 5 min): 351 ± 5 | heart rate ([4]; IRL-1620 5 μg/kg, time 10 min): 351 ± 4 | heart rate ([4]; IRL-1620 5 μg/kg, time 15 min): 353 ± 4 | heart rate ([4]; IRL-1620 5 μg/kg, time 30 min): 360 ± 3 | heart rate ([4]; IRL-1620 5 μg/kg, time 45 min): 370 ± 2 | heart rate ([4]; IRL-1620 5 μg/kg, time 60 min): 379 ± 3 | heart rate ([4]; IRL-1620 5 μg/kg, time 90 min): 392 ± 2 | heart rate ([4]; IRL-1620 5 μg/kg, time 120 min): 382 ± 8 | persistence of the increase in cerebral blood flow ([5]; 5 μg/kg, i.v., FIG. 5): about 60 minutes | increase in cerebral blood flow ([5]; 5 μg/kg, i.v., at 5 min, FIG. 5): 12.79% | increase in cerebral blood flow ([5]; 5 μg/kg, i.v., at 10 min, FIG. 5): 18.17% | increase in cerebral blood flow ([5]; 5 μg/kg, i.v., at 15 min, FIG. 5): 17.92% | cerebral blood perfusion compared to baseline ([5]; IRL-1620 3 nmol/kg, iv, FIG. 2, FIG. 3): significantly increased | selectivity to ETB receptors over ETA receptors (ETB receptors): 120,000 times | complete remission of tumors (breast tumor): 20%
